Measured values taken from patent CN104447994A.
Results are given in words; binding and its absence hold for the method and conditions named. Some results given as binding are weak or reduced against the parent protein; the word gives no strength. For some of these results: Sequences can lack the tags named with a protein.

Columns and labels:
[1] = molecular target: T1, 重组p63抗原蛋白 (recombinant p63 fragment expressed in E. coli, with PelB signal peptide and His tag) (UniProt Q9H3D4); assay: Western blot on recombinant p63, antibody diluted 1:1000
T1 sequence (looked up): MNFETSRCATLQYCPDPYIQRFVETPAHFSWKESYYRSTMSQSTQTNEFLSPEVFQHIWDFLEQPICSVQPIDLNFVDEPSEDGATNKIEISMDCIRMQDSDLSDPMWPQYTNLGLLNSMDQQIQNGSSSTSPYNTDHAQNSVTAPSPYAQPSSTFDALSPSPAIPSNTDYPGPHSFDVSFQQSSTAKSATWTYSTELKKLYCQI

[2] = molecular target: T1, 重组p63抗原蛋白 (recombinant p63 fragment expressed in E. coli, with PelB signal peptide and His tag); assay: Western blot
[3] = molecular target: T2, p63 (native p63 in tumour cells and tissues) (UniProt Q9H3D4); assay: Western blot
T2 sequence (looked up): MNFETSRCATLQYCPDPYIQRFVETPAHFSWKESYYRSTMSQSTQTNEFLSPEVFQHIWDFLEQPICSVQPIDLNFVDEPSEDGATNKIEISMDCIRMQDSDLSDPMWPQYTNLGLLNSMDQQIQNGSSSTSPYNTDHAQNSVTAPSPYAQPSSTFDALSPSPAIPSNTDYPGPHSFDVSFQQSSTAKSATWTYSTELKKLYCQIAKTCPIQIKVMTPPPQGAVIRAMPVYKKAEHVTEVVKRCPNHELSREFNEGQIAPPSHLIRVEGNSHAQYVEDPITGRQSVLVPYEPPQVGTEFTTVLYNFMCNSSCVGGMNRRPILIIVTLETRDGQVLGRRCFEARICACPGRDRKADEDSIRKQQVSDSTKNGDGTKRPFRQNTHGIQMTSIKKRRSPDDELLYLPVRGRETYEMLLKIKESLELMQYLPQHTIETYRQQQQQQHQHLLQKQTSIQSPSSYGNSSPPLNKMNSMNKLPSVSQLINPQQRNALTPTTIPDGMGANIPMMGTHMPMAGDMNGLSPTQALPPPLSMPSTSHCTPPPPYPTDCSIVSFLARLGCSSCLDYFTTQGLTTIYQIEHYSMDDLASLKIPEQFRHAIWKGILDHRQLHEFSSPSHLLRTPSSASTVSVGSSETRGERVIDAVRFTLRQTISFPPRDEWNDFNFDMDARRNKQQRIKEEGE

[4] = molecular target: T1, 重组p63抗原蛋白 (recombinant p63 fragment expressed in E. coli, with PelB signal peptide and His tag); assay: Western blot, Figure 2

- binding [1]: binds
- binding [2]: binds
- binding [3]: binds
- binding [4]: binds
B1: 60738-10D8单克隆抗体 (monoclonal antibody secreted by hybridoma 60738-10D8) (antibody, V domains shown)
VH: QVQLQESGAELVKPGASVKLSCKASGFTFSSSHIYWVKQRPGQGLEWIGGINHSNAGINFTEKFKNKATLTVDKSSSTAYMQVSSLTSEDSAVYYCKQVSYWGQGTLVTVSA
VL: DIVITQDELSLPVSLGDHASISCRSSQSLVFSDGNTYLHWYLQKPGQSPKLLIYIVFNRFSGVPDRFSGSGSGTDFTHKISRVEAEDLGVYFCSQSTHVTAYTFGGGTKLEIKR
